The values below come from PMC3213697.

Sequences of proteins named here, by UniProt entry; tags and fusion partners are left off. A change or cut given only in a name is not applied to a line headed by its entry. A line that says so, or that is headed by a name, gives the form on record, which may keep a tag or linker.
C313Y myostatin growth factor (O14793, form named): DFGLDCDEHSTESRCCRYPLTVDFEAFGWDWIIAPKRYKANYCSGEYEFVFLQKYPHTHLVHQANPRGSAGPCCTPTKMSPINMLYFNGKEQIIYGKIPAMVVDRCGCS

Results are given in words; binding and its absence hold for the method and conditions named.

The assay has as its target C313Y myostatin growth factor (UniProt O14793). Nature of the assay: reducing versus non-reducing SDS-PAGE (disulphide-linked dimer); furin cleavage products of the purified precursor proteins, 15% SDS-PAGE, reducing versus non-reducing; both purified.

For “C313Y myostatin growth factor (from UniProt O14793 267-375) (ligand)”, the binding entry is on record as “no binding”.
